According to PubChem BioAssay AID1347423 (Functional Genomics Laboratory (NCATS/FGL), 2020):
In all, about 52,000 sequences went through this assay and about 210 (0.4%) were called active.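 The calls were made as follows: active = gene whose silencing raises cell survival under the drug, median off-target-corrected z-score across its silencing RNAs 2 or more; inactive = the rest.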 The list shows a part of the results.

Experiment: Resistance to Poly (ADP-Ribose) Polymerase inhibitor: Gene Identification via Genome-wide siRNA Screen
Conditions: mouse BRCA2 R2336H ES cells, olaparib, CellTiter-Glo viability; active compounds read high
Procedure, shortened: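 Mouse BRCA2 R2336H ES cells were reverse-transfected with siRNA (20 nM final), treated at 48 h with 500 nM olaparib, and read by CellTiter-Glo after 72 h. Scores: MAD-based z per siRNA, median per gene, seed off-target correction.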

Sequence	z-score
GCGCAUUAGGAUAUAGACATT against 9530085L02Rik	inactive: 0.0519
GGAUGAUUUAUGGUUCUUGTT against V1rg4	inactive: 1.54
GGUAGAGACCGCAUAGAAATT against Aqp8	inactive: 0.697
UACGCUAAGGAAUAAGGACTT against Olfr110	inactive: -0.0124
CGCUUACAUGAACUUCAUATT against Trar3	inactive: -0.163
UUCCCACUCUGACUAUUUUTT against Olfr970	inactive: -1.14
GGUAAGGUUACAGCACUGATT against 2510006C20Rik	inactive: 0.942
GCGGAACUUUCAUUGCUGGTT against Rabggta	inactive: -0.0607
GGUUUAACUAGAAUUUGGUTT against F730023N20	inactive: 0.724
CCAGACCUGUUGUAAAGACTT against Grn	inactive: -8.1e-05
GGAGAGUGAUAUCAAGCCUTT against Lbr	inactive: 0.834
GGCCAAGAAACAUGCCCUATT against Pbx2	inactive: -0.613
GGACUUUACAAUAAAACAGTT against Dkk4	inactive: 0.906
CCAUCAUCCCUAGAUACCCTT against Muc20	inactive: -1.59
GGAACAGAACCACUACCUGTT against Slc39a5	inactive: -0.596
CCCUGAUUCAUACGACUGATT against Ctdp1	inactive: 0.27
GGAGGUACCAGCAGAAAGUTT against 1110001C20Rik	inactive: -0.668
GCAACUUUAUAGCAGAAUCTT against Apbb3	inactive: -0.686
GGCAUUUCGUGGAUCACCGTT against Gtpbp5	inactive: -0.584
GGAGACACUCGUCCUUUAUTT against Cyp20a1	inactive: -0.0559
GGACAAGUUUCAGUGACCCTT against Zdhhc9	inactive: -0.268
GGAACAGGCCACCAUUGAATT against Mrps7	inactive: -2.17
GGAAGUGGACAUCACCAUGTT against Sh3bgrl2	inactive: -0.564
GCUCUCUCUCAUUGAUCUCTT against Olfr697	inactive: 0.475
GCAGUCUUUUGGAUAGGUUTT against Ccni	inactive: 0.638
CGCGAGAAGACGAAUUCUCTT against Pknox1	inactive: 0.136

Part of the list above, with bars between the fields.
Sequence | z-score
GCGCAUUAGGAUAUAGACATT against 9530085L02Rik | inactive: 0.0519
UACGCUAAGGAAUAAGGACTT against Olfr110 | inactive: -0.0124
GCGGAACUUUCAUUGCUGGTT against Rabggta | inactive: -0.0607
GGAGGUACCAGCAGAAAGUTT against 1110001C20Rik | inactive: -0.668
GGCAUUUCGUGGAUCACCGTT against Gtpbp5 | inactive: -0.584
GCUCUCUCUCAUUGAUCUCTT against Olfr697 | inactive: 0.475
CGCGAGAAGACGAAUUCUCTT against Pknox1 | inactive: 0.136

More records follow:

Sequence	z-score
CCAGGAUCCUUCUAAGUGCTT against Tes	inactive: -0.659
GGAAGGUCUGCUAUAAGUATT against Ifi30	inactive: -0.176
GGGCCAAAGGAAACAGCACTT against Slc24a5	inactive: 1.83
GCUUCGAUCGCUGGAAUGUTT against Dctn4	inactive: -1.09
GCCGUCUUUACAUUCCUGATT against Olfr605	inactive: 1.12
GGACAUUUCAAAAGAAAGGTT against 6330406I15Rik	inactive: 0.0653
GGUCAAGCCAGUGGGCUAATT against Gtrgeo22	inactive: -0.66
CCAUUUAUCCUCUUUUCCGTT against Plekhb1	inactive: 0.929
GCCGAGGACCACAUUAAAGTT against Crtap	inactive: 0.743
GCCGUGAUCGACUUGAAUATT against U2af1	inactive: -2.97
CCCAGUGGUUUUAAAGCAUTT against Commd3	inactive: 0.547
CCCAUUAUGGAGCUAGAAATT against Arid4b	inactive: -2.21
GGAACAUGUCGUAAAUAAGTT against Trim7	inactive: 0.753
GCUCAUGUGACUAUUGUUATT against Olfr1512	inactive: -0.34
GGACAUCUGGGAAUACCUCTT against Actl7a	inactive: 1.52
GGUGGGAAUGGGAAUCAGUTT against Akr1e1	inactive: 1.57
GGGUAUUAUCAAGGAGGAGTT against Bclaf1	inactive: -0.185
GCAUACCCUAUUUAGUUUUTT against Gpr33	inactive: -0.224
GGUGAAACUGAAUAAAAUCTT against 4931406C07Rik	inactive: 1.09
GCCGUAGUUAAGGUAUCUGTT against Butr1	inactive: -0.663
GGGAGACUAUCCUUGCUGGTT against Cryba2	inactive: 1.37
GGCUAUGUUAUUGACAUGUTT against E230022H04Rik	inactive: 0.177
GUCCCAAUACCUUCUUGUUTT against V1rc28	inactive: -2.01
GGUUUUGUUCAGGGAUCAUTT against 2810423O19Rik	inactive: 0.327
GGUGACAUGGAUGUAGCAATT against Fuk	inactive: 0.792
CCAUUCCAAAGGUAUUAGCTT against Olfr619	inactive: -0.526

Sequence	z-score
CCUCAGAGCCACGACAUUUTT against 2810438M17Rik	inactive: -1.08
GGGUGGUGUCUUCAAGUCATT against Nat3	inactive: -0.519
CCAAAGCUUGCUUUAAAACTT against 1700034H14Rik	inactive: 0.564
GGUUUGCCUGCUGAUGACATT against Olfr883	inactive: -0.443
GGAACUUUGUCUUUCAUACTT against Clspn	inactive: -2.86
GGCUACGUUUUUGUAUUCUTT against Slc35d2	inactive: 2.22
ACUGACCUUUGUUCCACAUTT against V1rc1	inactive: -0.417
GGACAUUUUUGUCUCUAAATT against 2310028N02Rik	inactive: 0.297
GCCUUCAUUAUUUUAAUGCTT against Ilf3	inactive: -0.226
GGGAGGCUGUUGUCAAUCCTT against Krtap5-4	inactive: 0.758
GGAAAAAUUUCCAGAGGUUTT against Pnpt1	inactive: 0.0471
GGGCUGGUUCGAGCCAAUATT against Apoe	inactive: 1.03
GGUUAACGAAGGAGAGAAGTT against 1700027N10Rik	inactive: -1.17
GGCCUCUUCACUUAUGUAUTT against Inha	inactive: -1.12
GGUGGCUUUGGCUGCAUCUTT against Vrk1	inactive: 1.23
CCCACCGCCAUGACAUUAUTT against Klk15	inactive: -0.64
GGAUAUCACUUGCUAUUCCTT against C430003P19Rik	inactive: -0.334
CCUGUAGUUUGUUGAAUCUTT against 2410018L13Rik	inactive: 0.8
GGCAUUCUGAAAACAACUCTT against 0610039P13Rik	inactive: 0.0934
GGAAAAGAUCACCAGGAGCTT against Pin1	inactive: -0.355
CCUCGCCUGUACUAGCUAUTT against Rilp	inactive: 0.892
GGACUUAAGUAAGAUGAAGTT against Pcqap	inactive: 0.889
GGGAUCCUAACAUCAGGGATT against Ly6c	inactive: -0.773
GGAAAUCACGACCAUGGCGTT against Gtf2b	inactive: -0.26
GCACUGAAGUUUAGUAAAATT against Stag3	inactive: -0.903
GGAAUAAUCCCAGUUCUCUTT against 2610511E22Rik	inactive: 0.775

Looked up one by one from the list above, two records:
Sequence	z-score
GGGUGGUGUCUUCAAGUCATT against Nat3	inactive: -0.519
GGUGGCUUUGGCUGCAUCUTT against Vrk1	inactive: 1.23

Remaining list, next part:

Sequence	z-score
GGUGGAGGAACGAAAGUUUTT against 2610028I09Rik	inactive: -1.07
GGAAUGGUUUUUCAAGACUTT against 4931409K22Rik	inactive: 0.0657
GCAUGCAACUAUUUAUCCATT against Zfr	inactive: -0.228
GGGAAUCCGUCCCAAGAAGTT against Rrs1	inactive: 0.798
GGUUCACUCAACUCAACAATT against 1700094C09Rik	inactive: -0.25
GGUACAGUUAAAGAAUCUGTT against 1110064P04Rik	inactive: -0.822
GGCUGCACUAGACGAAUGCTT against 2600005C20Rik	inactive: 1.16
GCUGUGAGCAAGAGUAAUCTT against BC011487	inactive: -2.69
GGAUGUGAAGUCAGUUUCATT against BC025833	inactive: 0.365
CCUCUGUAAGAUAAUGUUUTT against Ctsm	inactive: -1.11
GCACAAAUUUGAAGAUCUATT against Ptprb	inactive: 0.608
GGCUCUUAUUGCCCUAACCTT against 2310003F16Rik	inactive: 0.727
GCAUUGGAGCUAAAUCUGGTT against Tcap	inactive: 0.537
GGAAGUACAAACUACUAGUTT against 1110007A13Rik	inactive: -0.797
GCUGAACCAAUGUAGAAUATT against 5730409F24Rik	inactive: 0.392
GGUUUUUGACUUGAGUCAUTT against Olfr689	inactive: 0.642
GGAGGACUCUGCUUCCAUATT against 9430086K21Rik	inactive: -1.31
GACAAGCUGUGGAGAAGUGTT against Sprrl5	inactive: -2.45
GGGAUUCUGUCUGCACUGUTT against Olfr1145	inactive: 1.25
GGAGUAACUAUUCCCAAUUTT against Herc1	inactive: -0.489
GGAAGAAUUUUCGCCAACATT against Iqcb1	inactive: 0.354
GGAGAGUACUUCCAGUAAGTT against Glycam1	inactive: -0.511
GGAAAGCUAAUUUUGAAACTT against 5033428A16Rik	inactive: 2.22
GGUCUUUGAGACAGAUAUUTT against Colec12	inactive: -0.251
GCAUAAAGAAGGAAUCACCTT against 5430413I02Rik	inactive: 0.327
